# From publication PMC7895558, “Antiprotozoal Compounds from Urolepis hecatantha (Asteraceae)” (Evidence-based Complementary and Alternative Medicine : eCAM, 2021)
# Some entries repeat one wording, which the source may state once for all of them.
# Tested on: Trypanosoma cruzi epimastigotes (Tulahuen 2 strain)
# Assay: in vitro anti-Trypanosoma cruzi activity (epimastigote growth, absorbance 600 nm)
# Assay type: cell-based
# Conditions: macrophage CC50 versus T. cruzi epimastigote IC50
# Method: For the anti-Trypanosoma and anti-Leishmania activity assays, we followed the methods described by Aguilera et al., 2019 [15].
# For the in vitro anti-Trypanosoma cruzi activity, epimastigotes of the Tulahuen 2 strain (genotype TcVI) grown in an axenic medium (BHI-Tryptose) were used. Cells from a 5–7-day-old culture were inoculated in a fresh culture medium to give an initial concentration of 10^6 cells/mL. The absorbance at 600 nm of the cells in culture was measured every day. On day five, the medium was inoculated with different doses of the compounds (25–0.05 µM) from a stock solution in dimethylsulfoxide (DMSO) (DMSO concentration in the culture medium never exceeded 0.4%). Control parasites were cultivated in medium with 0.4% DMSO v/v. Benznidazole was used as a positive control. At five days, the absorbance of the culture was measured and compared to the control and the IC50 values were calculated for each compound using OriginLab 8.5® sigmoidal regression. Each experiment was done in duplicate, and each concentration was tested in triplicate.
row,Compound,selectivity index (SI) on T. cruzi
1,"COc1cc(-c2oc3cc(O)c(OC)c(O)c3c(=O)c2OC)ccc1O [compound 2, jaceidin]",did not display selectivity
2,"C=C1C(=O)O[C@@H]2/C=C(\C)[C@@H](O)C/C=C(\C)C[C@@H](OC(=O)/C(=C/CO)COC(C)=O)[C@@H]12 [compound 3, santhemoidin C]",did not display selectivity
3,"C=C(C)c1cc2cc(C(C)=O)c(O)cc2o1 [compound 1, euparin]",did not display selectivity
